The record followed here is paper PMC4758748.

The target of test [1] is T1, Streptag-Chs2-215-629 (S. cerevisiae) (UniProt P14180).
T1 sequence: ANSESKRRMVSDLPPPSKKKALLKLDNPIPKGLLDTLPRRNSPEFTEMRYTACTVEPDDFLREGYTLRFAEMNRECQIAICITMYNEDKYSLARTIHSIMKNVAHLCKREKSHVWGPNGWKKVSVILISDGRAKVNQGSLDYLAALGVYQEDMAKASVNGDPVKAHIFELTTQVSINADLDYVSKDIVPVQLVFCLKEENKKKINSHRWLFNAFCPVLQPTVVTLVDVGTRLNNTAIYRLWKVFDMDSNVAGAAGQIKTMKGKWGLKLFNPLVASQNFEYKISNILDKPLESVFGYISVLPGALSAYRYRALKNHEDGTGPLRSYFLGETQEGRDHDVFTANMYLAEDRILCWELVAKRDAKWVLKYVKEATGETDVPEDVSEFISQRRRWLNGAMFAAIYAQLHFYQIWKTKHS
The test can be described thus: pull-down; three E. coli cultures (6His-Inn1, Strep-tag-Chs2-215-629, untagged Cyk3) mixed, one common cell extract; Strep-Tactin Superflow, then Ni-NTA agarose; immunoblot with anti-Streptag, anti-His and anti-Cyk3. On the technique in general: In western blotting, separated proteins are transferred to a membrane and probed.

Test [2] concerns the target T2, 6His-tagged Inn1 (S. cerevisiae) (UniProt P53901).
T2 sequence: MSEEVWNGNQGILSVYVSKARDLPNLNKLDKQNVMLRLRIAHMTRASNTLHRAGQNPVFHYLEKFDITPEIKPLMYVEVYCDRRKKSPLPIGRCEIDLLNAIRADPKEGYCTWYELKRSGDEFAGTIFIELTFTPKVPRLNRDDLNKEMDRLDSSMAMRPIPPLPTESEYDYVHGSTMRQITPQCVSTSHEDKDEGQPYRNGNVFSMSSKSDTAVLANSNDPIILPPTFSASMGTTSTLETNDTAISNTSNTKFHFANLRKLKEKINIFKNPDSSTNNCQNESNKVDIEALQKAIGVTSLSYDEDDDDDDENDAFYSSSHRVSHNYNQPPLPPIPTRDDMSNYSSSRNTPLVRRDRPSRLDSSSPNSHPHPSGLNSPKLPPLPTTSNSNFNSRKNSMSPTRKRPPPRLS
Described as above.

Test [3] addresses T3, Chs2-215-629 (two-hybrid fusion) (S. cerevisiae) (UniProt P14180).
T3 sequence: T1 sequence
In words: two-hybrid; vectors pGADT7 and pGBKT7 (Clontech); growth for two or three days at 30°C on Synthetic Complete medium lacking leucine, tryptophan and histidine (selective).

Test [4] concerns the target T4, Chs2-1-629 (two-hybrid fusion) (S. cerevisiae) (UniProt P14180).
T4 sequence: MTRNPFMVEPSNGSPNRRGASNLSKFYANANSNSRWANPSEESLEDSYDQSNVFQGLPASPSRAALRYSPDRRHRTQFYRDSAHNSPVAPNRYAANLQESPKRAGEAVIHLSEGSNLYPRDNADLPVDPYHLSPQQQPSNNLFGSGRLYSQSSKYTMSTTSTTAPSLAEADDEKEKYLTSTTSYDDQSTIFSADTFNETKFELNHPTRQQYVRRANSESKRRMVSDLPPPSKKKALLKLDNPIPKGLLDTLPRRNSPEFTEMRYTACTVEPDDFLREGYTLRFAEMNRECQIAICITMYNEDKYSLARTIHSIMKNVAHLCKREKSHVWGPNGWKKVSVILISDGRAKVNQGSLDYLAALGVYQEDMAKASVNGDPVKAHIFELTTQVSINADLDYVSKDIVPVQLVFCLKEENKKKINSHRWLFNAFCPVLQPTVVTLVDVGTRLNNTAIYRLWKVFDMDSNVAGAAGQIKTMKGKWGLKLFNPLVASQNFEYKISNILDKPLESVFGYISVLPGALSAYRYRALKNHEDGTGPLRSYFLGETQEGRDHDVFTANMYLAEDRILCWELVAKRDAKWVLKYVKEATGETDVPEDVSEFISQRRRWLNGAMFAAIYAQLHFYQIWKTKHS
The description is as above.

The target of test [5] is T5, Chs2-1-215 (two-hybrid fusion) (S. cerevisiae) (UniProt P14180).
T5 sequence: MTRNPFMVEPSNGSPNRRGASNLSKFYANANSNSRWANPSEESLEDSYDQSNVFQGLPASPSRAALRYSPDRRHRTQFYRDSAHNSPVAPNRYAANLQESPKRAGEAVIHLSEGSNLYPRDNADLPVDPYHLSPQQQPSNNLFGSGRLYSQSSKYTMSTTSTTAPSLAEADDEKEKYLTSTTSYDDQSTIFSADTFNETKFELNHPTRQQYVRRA
Described as above.

Test [6] deals with T6, Chs2-1-629 (recombinant, E. coli) (S. cerevisiae) (UniProt P14180).
T6 sequence: T4 sequence
The test can be described thus: pull-down; E. coli cultures expressing a Streptag fusion and a 6His fusion mixed after IPTG induction, one common cell extract with two recombinant proteins; Strep-Tactin Superflow (eluted with 2.5 mM d-Desthiobiotin), then Ni-NTA agarose (eluted with 250 mM imidazole); SDS-PAGE, Coomassie, immunoblot (anti-Streptag, anti-His), mass spectrometry of the band.

Test [7] concerns the target T1, Streptag-Chs2-215-629 (S. cerevisiae). The description is as above.
In test [8] the target is T7, C-terminus of Inn1 (134-409) (two-hybrid fusion) (S. cerevisiae) (UniProt P53901).
T7 sequence: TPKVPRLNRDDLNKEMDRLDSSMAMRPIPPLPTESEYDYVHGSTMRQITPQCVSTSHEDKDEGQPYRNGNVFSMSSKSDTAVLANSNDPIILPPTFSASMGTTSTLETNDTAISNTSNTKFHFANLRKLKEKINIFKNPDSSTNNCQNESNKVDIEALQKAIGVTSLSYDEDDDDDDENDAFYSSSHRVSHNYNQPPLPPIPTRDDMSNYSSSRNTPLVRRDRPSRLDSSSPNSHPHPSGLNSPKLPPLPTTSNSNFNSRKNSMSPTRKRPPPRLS
The test can be described thus: two-hybrid; vectors pGADT7 and pGBKT7 (Clontech); growth for two or three days at 30°C on Synthetic Complete medium lacking leucine, tryptophan and histidine (selective).

No constants are given. Whether binding was seen depends on the method and setting. For some of these results: Binding seen in cells or lysates may run through a third protein. Some binding calls cover weakened binding; strength is not graded here. Sequences can lack the tags named with a protein.

B1: untagged Cyk3 (recombinant, E. coli) (protein, UniProt Q07533 1-885)
chain: MATNLTSLKPPFKVKARYGWSGQTKGDLGFLEGDIMEVTRIAGSWFYGKLLRNKKCSGYFPHNFVILLEERLNSSTENGRQPSKIVESFEKSNKVVIPPVPSRYSDERPRPKKKLSSSMPNSPKKPVDSLTKARKAKSKEMVNEKNIYNTQSSRHHNNSAPNLPLASHSKPQVRNFEESMNNPLPPLPPLPDLDNMRKTDKRAPKKSYSANDLHMARSSREYNYYKDNQKFYDGFIPEKRYSLEEDSISSGLFSNSQYLNDSACSSENSFALMSDFSATSAGSFARHKYAQSFSDSLQRSQNANGCSTKINDSQEFGDSNASSRNGKMGDILRKIIIPKRNTNIYSSSVSSPKSPKAYPKLPDIQNLNLSATPDEARDWIAVKCHLNRARTLTKYDKHPRYMRALEENRDLILHPQDSIYNGLNTNEVKGNTKPGLVDVELAELNIEYIDKMTWKRCIRDGTMTLDSWAQTTFSARYSTVLEKLRGIYIFCTEMFALTDDNGTSDFSAEPQNLEKILYRKHCTPYELTWLFKKLANSLGITCEIVIGFLKTPSAINWEFKYNHCWLRILVNKEWRFIDVILGNVTNPIHEFVNNRKIKKAENSYFLMAPLEMIYTHIPPREFEQHIVPSIDQLSALYLPLVFPSFFKNELKLYKFSTALSFLEDSEIYECSLEIPNDVEVFASVVIPTDNEEASSAYRNMELALTQIKKQKAESGRRIALIKAVLPPNVNKGSLYIHSGVRGTQTSIANIHPLSMMVPLTHKGSNMKYEFVIKIPSESIQKIELYIVEPQSRYLFVGNEYSFEVIQSPSDGIVYSSDEGPNQNRKQPMAIKSPSGRVHELVKSDPHFPYGTWKGSIKIKEPGVWSALVIADSGIGWSVFAEWLCV
Consider B1, for which the binding entry in test [1] and in test [2] was “binds” each time.

B2: C-terminus of Inn1 (134-409) (two-hybrid fusion) (domain or fragment, UniProt P53901 134-409)
chain: T7 sequence
Take B2: the results for the binding result in test [3], in test [4] and in test [5] were “no binding”, “binds” and “binds”, respectively.

B3: 6His-tagged Inn1 (protein, UniProt P53901 1-409)
chain: T2 sequence
B3: the binding result in test [1], in test [6] and in test [7] was “binds” each time.

B4: Cyk3 SH3 domain (two-hybrid fusion) (domain or fragment, UniProt Q07533 9-70)
chain: KPPFKVKARYGWSGQTKGDLGFLEGDIMEVTRIAGSWFYGKLLRNKKCSGYFPHNFVILLEE
Consider B4, for which the binding result is “binds” in test [8] and “no binding” in test [4].
